{"source": "PubChem BioAssay AID652259, Drosophila RNAi Screening Center | 2013", "purpose": "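Genome-wide hunt for genes that control Wingless pathway activity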 (primary screen)", "system": "Drosophila clone 8 imaginal disc epithelial cells", "reagents": "long dsRNA against Drosophila genes", "treatment": "pathway stimulated by co-transfected Wingless expression plasmid", "read-out": "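Dual luciferase reads per well after Wingless plasmid stimulation: reporter firefly light and Renilla control light; activity is firefly divided by Renilla, a ratio not deposited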", "scale": "firefly reporter light: higher = more Wg reporter light, before normalisation; Renilla control light: higher = more transfected or surviving cells", "call rule": "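Strong candidates differ from their plate mean by at least two out of four per-plate statistical tests; weak candidates meet just one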", "meaning of the calls": "active = candidate regulator (raises or lowers reporter); inactive = not a candidate", "note": "The screen tested about 22,000 reagents; shown is a random part of those that have a named target and a result. In the full data, 233 (1.1%) are marked active. 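Light values are raw, unnormalised plate reads; the ratio scores behind the reporter calls were not deposited.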 Not stated in the record: the amount of reagent, the time to read-out, the dose of the treatment."}
{"target": "CG33768", "DRSC id": "DRSC11715", "firefly reporter light, replicate 1": 19440, "Renilla control light, replicate 1": 5696, "Outcome": "inactive"}
{"target": "CG17104", "DRSC id": "DRSC02573", "firefly reporter light, replicate 1": 9223, "Renilla control light, replicate 1": 1956, "Outcome": "inactive"}
{"target": "Mov10", "DRSC id": "DRSC07012", "firefly reporter light, replicate 1": 13446, "Renilla control light, replicate 1": 4036, "Outcome": "inactive"}
{"target": "comm", "DRSC id": "DRSC11336", "firefly reporter light, replicate 1": 5121, "Renilla control light, replicate 1": 2976, "Outcome": "inactive"}
{"target": "cib", "DRSC id": "DRSC18660", "firefly reporter light, replicate 1": 22985, "Renilla control light, replicate 1": 11680, "Outcome": "inactive"}

The list goes on, starting with the last 2 of the part before.
{"target": "comm", "DRSC id": "DRSC11336", "firefly reporter light, replicate 1": 5121, "Renilla control light, replicate 1": 2976, "Outcome": "inactive"}
{"target": "cib", "DRSC id": "DRSC18660", "firefly reporter light, replicate 1": 22985, "Renilla control light, replicate 1": 11680, "Outcome": "inactive"}
{"target": "CG31031 (retired record)", "DRSC id": "DRSC13964", "firefly reporter light, replicate 1": 4048, "Renilla control light, replicate 1": 1962, "Outcome": "inactive"}
{"target": "alpha-Est10", "DRSC id": "DRSC12613", "firefly reporter light, replicate 1": 9153, "Renilla control light, replicate 1": 2269, "Outcome": "inactive"}
{"target": "Best1", "DRSC id": "DRSC16909", "firefly reporter light, replicate 1": 18921, "firefly reporter light, replicate 2": 6.81e5, "Renilla control light, replicate 1": 4333, "Renilla control light, replicate 2": 3.03e5, "Outcome": "inactive"}
{"target": "CG9812", "DRSC id": "DRSC04566", "firefly reporter light, replicate 1": 2608, "firefly reporter light, replicate 2": 7195, "Renilla control light, replicate 1": 838, "Renilla control light, replicate 2": 2720, "Outcome": "inactive"}
{"target": "ps", "DRSC id": "DRSC15149", "firefly reporter light, replicate 1": 11698, "Renilla control light, replicate 1": 3522, "Outcome": "inactive"}
{"target": "ps", "DRSC id": "DRSC15151", "firefly reporter light, replicate 1": 10260, "Renilla control light, replicate 1": 2620, "Outcome": "inactive"}
{"target": "ps", "DRSC id": "DRSC15152", "reporter change call, replicate 1": "Wg reporter activity raised", "firefly reporter light, replicate 1": 20370, "Renilla control light, replicate 1": 2514, "Outcome": "active"}
{"target": "ps", "DRSC id": "DRSC16388", "firefly reporter light, replicate 1": 9991, "Renilla control light, replicate 1": 1968, "Outcome": "inactive"}
{"target": "Cpr11A", "DRSC id": "DRSC19861", "firefly reporter light, replicate 1": 15952, "Renilla control light, replicate 1": 9840, "Outcome": "inactive"}
{"target": "CG34461", "DRSC id": "DRSC10767", "firefly reporter light, replicate 1": 1724, "firefly reporter light, replicate 2": 7731, "Renilla control light, replicate 1": 1560, "Renilla control light, replicate 2": 3977, "Outcome": "inactive"}
{"target": "EMC5", "DRSC id": "DRSC02469", "firefly reporter light, replicate 1": 2677, "firefly reporter light, replicate 2": 8166, "Renilla control light, replicate 1": 774, "Renilla control light, replicate 2": 2915, "Outcome": "inactive"}
{"target": "CG17134", "DRSC id": "DRSC02583", "firefly reporter light, replicate 1": 2827, "firefly reporter light, replicate 2": 5872, "Renilla control light, replicate 1": 1085, "Renilla control light, replicate 2": 2819, "Outcome": "inactive"}
